According to EP4724480A2:
Results are given in words; binding and its absence hold for the method and conditions named. Some binding calls cover weakened binding; strength is not graded here.

Target: T1, Recombinant human HMGB1 (rHMGB1) (human), P09429
T1 chain: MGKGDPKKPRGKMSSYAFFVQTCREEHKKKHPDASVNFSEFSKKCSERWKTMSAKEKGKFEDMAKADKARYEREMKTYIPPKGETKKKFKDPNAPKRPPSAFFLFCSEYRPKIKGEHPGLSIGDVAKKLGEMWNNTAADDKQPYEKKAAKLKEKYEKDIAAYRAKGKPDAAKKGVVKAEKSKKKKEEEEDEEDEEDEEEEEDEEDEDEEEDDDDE
Test: Sulfo-SBED label transfer, immunoblot
Details: remark: other sources report otherwise

B1: Recombinant human HMGB1 (rHMGB1), P09429 1-215 (ligand)
chain: T1 chain
With B1 the binding was “binds”.
